Results published in PubChem BioAssay AID504444 (National Center for Advancing Translational Sciences (NCATS), 2011).
In all, about 360,000 compounds went through this assay and about 7,500 (2.1%) were called active. The shares of active, inactive and inconclusive entries below differ from those in the screen. The call rests on the fitted dose curve; in most records, active means well fitted inhibition curve with a large enough effect; inconclusive means small, poorly fitted or top-dose-only effect, or effect the other way; inactive means flat fitted curve, though single readings scatter. Where the call is inconclusive, the potency comes from a doubtful curve fit.

Test: Nrf2 qHTS screen for inhibitors; further: nearly all actives have a fitted effect of over 60% in size
Details: A549 ARE-Fluc reporter, luciferase luminescence, 18-24 h; series mostly up to 46 µM
Summary of the method: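 A549 ARE_Fluc cells, 5000/well, 5% FBS OPTI-MEM; compounds in dose-response, 18-24 h at 37 °C/5% CO2; CellTiter-Fluor viability read (Ex 405/Em 525), then BugLite luciferase luminescence = Nrf2 activity.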
Potency means the concentration at half of the fitted maximal effect.

With `COC(=O)C1(CCSC)NC(c2ccccc2OC)C2C(=O)N(C)C(=O)C21` (stereo unspecified) as the compound, how does the Potency read?
The Potency was inconclusive: 29.1 µM [activator, single point].

Which Potency does the source give for `Cc1ccc(-n2nc3ccc(NC(=S)NC(=O)/C=C/c4ccco4)cc3n2)cc1` here?
The Potency was inconclusive: 4.61 µM [activator, partial curve, poor fit].

Which Potency does the source give for `COC(=O)c1ccccc1NC(=O)CN(Cc1ccc(Cl)cc1)S(C)(=O)=O` here?
The Potency was inconclusive: 29.1 µM [falling, single point].

For `CCOc1ccc(OCC)c(S(=O)(=O)n2cc(C)nc2CC)c1`, which Potency is on record?
Its Potency is “inactive”.

For `CC(C)c1ccc(NC(=O)CCS(=O)(=O)c2ccc3c(c2)CC(=O)N3C)cc1`, which Potency is on record?
The Potency was inconclusive: 29.1 µM [activator, single point].

With `O=S(=O)(c1ccccc1)c1nnn2c1nc(NCc1ccccc1)c1cc(Cl)ccc12` as the compound, how does the Potency read?
Its Potency is “inactive”.

For `CCOc1ccc2c(=O)c(Oc3ccccc3)c(C)oc2c1`, which Potency is on record?
Its Potency is inconclusive: 9.2 µM [falling, partial curve, poor fit].

Which Potency does the source give for `CCOc1cc(NC(=S)Nc2ccccc2OC)c(OCC)cc1NC(=O)c1ccccc1C` here?
Its Potency is inconclusive: 0.103 µM [falling, full curve].

Which Potency does the source give for `Cc1nn(C)c(C)c1CN(C)C(=O)c1cc2n(n1)C(C(F)(F)F)CC(c1cccs1)N2` (stereo unspecified) here?
Its Potency is active: 13 µM.

For `Cc1cc(SCC(=O)NC2(C#N)CCCCC2)nc2c(C)cccc12`, which Potency is on record?
Its Potency is “inactive”.

With `O=c1c2sc3ccccc3c2n(Cc2ccccc2)c(=O)n1CCc1ccccc1` as the compound, how does the Potency read?
The Potency was “inactive”.

For `Cc1cc(C)c2c(=O)[nH]c(SCC(=O)Nc3ccc(Br)cc3)nc2n1`, which Potency is on record?
The Potency was inconclusive: 6.51 µM [activator, single point].

With `O=c1[nH]c(=O)n([C@H]2C[C@H](O)[C@@H](CO)O2)cc1F` as the compound, how does the Potency read?
The Potency was inconclusive: 0.58 µM [falling, partial curve, poor fit].

For `COc1ccc(S(=O)(=O)N2CCC(C(=O)Nc3cc(C(F)(F)F)ccc3Cl)CC2)cc1`, which Potency is on record?
Its Potency is inconclusive: 16.4 µM [falling, single point].

With `CN(CC(=O)Nc1ccccc1Cl)CC(=O)Nc1sc2c(c1C(N)=O)CCC2` as the compound, how does the Potency read?
The Potency was “inactive”.

With `CC(O)CNc1ncnc2cc(-c3ccc(F)cc3)sc12` (stereo unspecified) as the compound, how does the Potency read?
The Potency was inconclusive: 29.1 µM [activator, single point].

For `CCC(C)N1C(=O)/C(=C/c2c(NCCCOC(C)C)nc3c(C)cccn3c2=O)SC1=S` (stereo unspecified), which Potency is on record?
The Potency was “inactive”.

Which Potency does the source give for `Cc1cc(C(=O)CSc2nnnn2-c2ccc(O)cc2)c(C)n1Cc1ccc2c(c1)OCO2` here?
Its Potency is inconclusive: 29.1 µM [falling, single point].

Which Potency does the source give for `COc1ccc(/C=C/C(=O)NCC(=O)N/N=C/c2cc(Br)ccc2OC)cc1` here?
The Potency was inconclusive: 20.6 µM [falling, single point].

Which Potency does the source give for `Cc1ccc(S(=O)(=O)N(Cc2ccccc2)c2ccccc2C(=O)NCc2cccnc2)cc1` here?
Its Potency is “inactive”.

With `N#Cc1nnn2c1nc(N)c1c(F)cccc12` as the compound, how does the Potency read?
The Potency was inconclusive: 0.0041 µM [falling, full curve, poor fit].

Which Potency does the source give for `COc1ccc(CN(C2CCCC2)S(=O)(=O)c2ccc(-n3cnnn3)c(OC)c2)cc1OC` here?
Its Potency is inconclusive: 32.6 µM [falling, partial curve, poor fit].

For `CCC(C)NC(=O)Cn1c(=O)n(Cc2ccc(C(=O)NCc3ccc(C)cc3)cc2)c(=O)c2ccccc21` (stereo unspecified), which Potency is on record?
The Potency was inconclusive: 29.1 µM [falling, single point].

Which Potency does the source give for `C=CCNc1nc2ccccc2nc1NS(=O)(=O)c1ccc(Cl)cc1` here?
The Potency was inconclusive: 18.4 µM [falling, single point].

With `Oc1ccccc1-c1cc(-c2ccc(Cl)cc2)n[nH]1` as the compound, how does the Potency read?
The Potency was inconclusive: 29.1 µM [activator, single point].

Which Potency does the source give for `CCCC(=O)Nc1ccc(NC(=O)c2ccccc2OC)cn1` here?
The Potency was inconclusive: 7.31 µM [falling, partial curve, poor fit].

For `COc1ccc(-c2noc(-c3ccccc3F)n2)cc1`, which Potency is on record?
Its Potency is inconclusive: 2.31 µM [activator, partial curve].

For `CCCOc1ccccc1/C=C1\SC(N2CCCCC2)=NC1=O`, which Potency is on record?
Its Potency is inconclusive: 6.51 µM [activator, partial curve].

Which Potency does the source give for `Cc1ccccc1COc1ccc(/C=C(\C#N)C(N)=O)cc1` here?
The Potency was inconclusive: 20.6 µM [activator, single point].

Which Potency does the source give for `COCCCn1c(N)c(-c2nc3ccccc3n2C)c2nc3ccccc3nc21` here?
Its Potency is active: 20.6 µM.

With `COc1cnc(-c2ccccn2)nc1Oc1ccc(Cl)c2ccccc12` as the compound, how does the Potency read?
The Potency was inconclusive: 29.1 µM [falling, single point].

For `CCOCCCNc1c(CC)c(C)c(C#N)c2nc3ccccc3n12`, which Potency is on record?
The Potency was inconclusive: 1.16 µM [falling, full curve, poor fit].

With `CC(C)(C)c1ccc(C(=O)NNC(=O)C(=O)N2CCCCC2)cc1` as the compound, how does the Potency read?
Its Potency is inconclusive: 29.1 µM [activator, single point].

For `CS(=O)(=O)N1CCc2cc(C(=O)Nc3ccc(C(F)(F)F)cc3)ccc21`, which Potency is on record?
The Potency was inconclusive: 9.2 µM [falling, partial curve, poor fit].

With `O=C1C2C3C=CC(CC3)C2C(=O)N1/N=C/c1ccc(O)cc1` (stereo unspecified) as the compound, how does the Potency read?
The Potency was inconclusive: 23.1 µM [activator, single point].

Which Potency does the source give for `Cc1ccc(NC(=O)CSc2nccn2Cc2ccccc2)cc1C` here?
The Potency was inconclusive: 4.61 µM [activator, partial curve, poor fit].

For `CCOC(=O)c1nn(-c2ccc(OCC)cc2)c(C)c1C(C)=O`, which Potency is on record?
The Potency was inconclusive: 18.4 µM [falling, partial curve, poor fit].

For `CCc1c(C)nc2c(-c3ccccc3)c(-c3ccccc3)[nH]n2c1=O`, which Potency is on record?
The Potency was inconclusive: 29.1 µM [falling, single point].

For `O=C(CSc1ccccn1)N1CCN(c2ccc(Cl)cc2)CC1`, which Potency is on record?
Its Potency is inconclusive: 29.1 µM [falling, single point].

For `CCOc1ccc(-n2ccnc2SCC(=O)Nc2cc(C)on2)cc1`, which Potency is on record?
Its Potency is inconclusive: 29.1 µM [falling, single point].

For `O=C(O)c1ccc(S(=O)(=O)NC2CCCc3ccccc32)cc1` (stereo unspecified), which Potency is on record?
Its Potency is “inactive”.

Which Potency does the source give for `O=C(N/N=C/c1ccncc1)c1cccs1` here?
Its Potency is inconclusive: 25.9 µM [activator, single point].

With `CNc1ncnc2sc(-c3ccccc3)cc12` as the compound, how does the Potency read?
The Potency was inconclusive: 29.1 µM [falling, single point].

For `COc1ccc(NC(=O)c2cc([N+](=O)[O-])ccc2O)cc1`, which Potency is on record?
Its Potency is inconclusive: 5.8 µM [falling, full curve, poor fit].

For `COc1ccc(N2C(=O)Cc3c2nc(N)c(C#N)c3N)cc1`, which Potency is on record?
The Potency was inconclusive: 1.64 µM [falling, partial curve, poor fit].

For `Fc1ccc(C2C3=C(Nc4ncnn42)c2ccccc2OC3c2ccncc2)cc1` (stereo unspecified), which Potency is on record?
The Potency was inconclusive: 29.1 µM [falling, single point].

With `CC(=O)c1ccc(NC(=O)N2CCN(c3cccc(Cl)c3)CC2)cc1` as the compound, how does the Potency read?
The Potency was active: 9.2 µM.

With `CC(=O)OCCNc1cc(N2CCN(C)CC2)c2noc3c2c1C(=O)c1ccccc1-3` as the compound, how does the Potency read?
The Potency was “inactive”.

For `CCCOc1ccc(-c2cc(C(F)(F)F)c(C#N)c(SCCC(=O)O)n2)cc1`, which Potency is on record?
The Potency was inconclusive: 23.1 µM [falling, single point].

Which Potency does the source give for `CCOC(=O)c1c(NC(=O)Cn2cc([N+](=O)[O-])cn2)sc2c1CCC2` here?
Its Potency is inconclusive: 29.1 µM [falling, single point].

With `COC(=O)N/N=C/c1cc(C)n(-c2ccccc2)c1C` as the compound, how does the Potency read?
Its Potency is inconclusive: 5.8 µM [activator, partial curve, poor fit].

For `CN(CCc1ccccc1)C(=O)c1cc(COc2cccc(C(F)(F)F)c2)on1`, which Potency is on record?
The Potency was inconclusive: 32.6 µM [falling, single point].

For `Cc1nc(SCc2ccc(C(=O)O)cc2)nc2c1CCCC2`, which Potency is on record?
The Potency was inconclusive: 16.4 µM [falling, single point].

For `CC(CC(=O)N1CCN(c2ccccc2)CC1)S(=O)(=O)c1ccc2c(c1)NC(=O)CS2` (stereo unspecified), which Potency is on record?
The Potency was inconclusive: 29.1 µM [falling, single point].

For `CCCCONc1ncnc2nonc12`, which Potency is on record?
The Potency was inconclusive: 6.51 µM [activator, single point].

For `CNC(=S)N(CCc1c(C)[nH]c2ccc(C)cc12)Cc1cc(OC)c(OC)c(OC)c1`, which Potency is on record?
Its Potency is active: 23.1 µM.

Which Potency does the source give for `Cc1nc2ccccc2nc1OCc1ccc([N+](=O)[O-])cc1` here?
Its Potency is inconclusive: 13 µM [falling, partial curve, poor fit].

For `COc1ccc(-c2cn3cc(C)ccc3n2)cc1Br`, which Potency is on record?
The Potency was inconclusive: 4.61 µM [activator, full curve].

With `CC(=O)c1ccc(Nc2ncnc3c2oc2ccccc23)cc1` as the compound, how does the Potency read?
The Potency was inconclusive: 0.461 µM [activator, full curve, poor fit].

Which Potency does the source give for `CC(=O)N1CCCc2cc(S(=O)(=O)N3CCCC(C(=O)NCc4ccc(C)cc4)C3)ccc21` (stereo unspecified) here?
Its Potency is active: 5.8 µM.

Which Potency does the source give for `O=C(Nc1cccc(S(=O)(=O)NCc2ccco2)c1)c1ccc(Cl)cc1` here?
The Potency was inconclusive: 18.4 µM [falling, single point].

With `CCc1ccc(-n2nc3ccc(NC(=O)COc4ccc(OC)cc4)cc3n2)cc1` as the compound, how does the Potency read?
Its Potency is active: 1.64 µM.

For `CCc1nn2c(=O)c(S(=O)(=O)Nc3ccc(C(C)C)cc3)c(C)nc2s1`, which Potency is on record?
The Potency was inconclusive: 1.84 µM [falling, partial curve].

With `Cc1ccc(NC(=O)C(=O)c2c[nH]c3ccccc23)cc1` as the compound, how does the Potency read?
The Potency was inconclusive: 9.2 µM [activator, partial curve].

With `Cc1cc(C)cc(N(C(=O)Cc2cccs2)C(C(=O)NC2CCCC2)c2ccc(C)o2)c1` (stereo unspecified) as the compound, how does the Potency read?
Its Potency is “inactive”.

With `Cn1c(=NCC(O)COc2ccccc2)sc2ccccc21` (stereo unspecified) as the compound, how does the Potency read?
The Potency was inconclusive: 3.26 µM [activator, partial curve, poor fit].
